{
  "sequences": {"note": "Amino acid sequences for entries named in this document (tags omitted).", "UniProt O75618": "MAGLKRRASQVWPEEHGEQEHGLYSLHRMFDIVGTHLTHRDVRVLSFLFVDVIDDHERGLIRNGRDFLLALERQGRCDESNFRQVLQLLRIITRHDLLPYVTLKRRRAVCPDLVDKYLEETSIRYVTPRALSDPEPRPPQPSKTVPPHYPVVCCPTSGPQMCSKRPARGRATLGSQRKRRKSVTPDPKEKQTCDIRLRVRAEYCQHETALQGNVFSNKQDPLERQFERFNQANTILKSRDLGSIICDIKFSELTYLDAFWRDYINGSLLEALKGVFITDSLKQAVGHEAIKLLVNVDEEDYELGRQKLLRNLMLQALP", "UniProt P63208": "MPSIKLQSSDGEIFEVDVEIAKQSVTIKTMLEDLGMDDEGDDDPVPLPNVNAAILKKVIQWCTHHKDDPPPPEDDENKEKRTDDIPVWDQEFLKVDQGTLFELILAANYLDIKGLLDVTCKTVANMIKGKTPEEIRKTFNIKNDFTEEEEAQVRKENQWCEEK", "UniProt Q93009": "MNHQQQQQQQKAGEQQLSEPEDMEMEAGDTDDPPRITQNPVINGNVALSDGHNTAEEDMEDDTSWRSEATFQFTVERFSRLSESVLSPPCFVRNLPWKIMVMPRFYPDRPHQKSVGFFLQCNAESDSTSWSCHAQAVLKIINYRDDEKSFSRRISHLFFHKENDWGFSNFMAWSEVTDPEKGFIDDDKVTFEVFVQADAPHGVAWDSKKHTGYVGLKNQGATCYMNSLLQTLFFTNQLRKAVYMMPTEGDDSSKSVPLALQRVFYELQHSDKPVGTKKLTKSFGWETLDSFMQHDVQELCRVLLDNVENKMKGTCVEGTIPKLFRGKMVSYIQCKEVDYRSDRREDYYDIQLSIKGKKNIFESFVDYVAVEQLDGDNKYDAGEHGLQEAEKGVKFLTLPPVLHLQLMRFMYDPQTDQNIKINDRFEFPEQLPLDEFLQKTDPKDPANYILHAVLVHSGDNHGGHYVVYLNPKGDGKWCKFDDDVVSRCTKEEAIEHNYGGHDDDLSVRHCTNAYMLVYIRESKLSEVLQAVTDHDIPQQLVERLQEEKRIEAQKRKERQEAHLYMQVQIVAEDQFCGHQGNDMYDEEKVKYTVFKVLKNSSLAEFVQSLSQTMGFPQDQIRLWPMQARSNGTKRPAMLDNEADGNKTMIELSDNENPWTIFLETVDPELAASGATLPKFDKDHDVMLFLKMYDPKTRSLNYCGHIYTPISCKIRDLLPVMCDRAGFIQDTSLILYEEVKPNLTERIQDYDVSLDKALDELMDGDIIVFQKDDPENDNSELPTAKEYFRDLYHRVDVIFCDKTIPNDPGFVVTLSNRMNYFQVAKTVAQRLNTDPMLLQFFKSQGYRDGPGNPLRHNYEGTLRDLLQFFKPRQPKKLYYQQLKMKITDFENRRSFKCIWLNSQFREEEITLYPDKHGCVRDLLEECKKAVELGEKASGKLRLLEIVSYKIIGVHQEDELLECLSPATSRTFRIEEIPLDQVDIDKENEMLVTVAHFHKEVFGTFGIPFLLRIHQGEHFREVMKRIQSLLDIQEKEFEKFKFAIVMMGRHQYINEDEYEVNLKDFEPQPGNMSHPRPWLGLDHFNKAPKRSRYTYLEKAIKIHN"},
  "source": "paper PMC9260856",
  "biological_target": "T1, StrepII-FLAG-tagged FBXO38 (SF-FBXO38), expressed in HeLa cells (human) (UniProt Q6PIJ6)",
  "T1 sequence": "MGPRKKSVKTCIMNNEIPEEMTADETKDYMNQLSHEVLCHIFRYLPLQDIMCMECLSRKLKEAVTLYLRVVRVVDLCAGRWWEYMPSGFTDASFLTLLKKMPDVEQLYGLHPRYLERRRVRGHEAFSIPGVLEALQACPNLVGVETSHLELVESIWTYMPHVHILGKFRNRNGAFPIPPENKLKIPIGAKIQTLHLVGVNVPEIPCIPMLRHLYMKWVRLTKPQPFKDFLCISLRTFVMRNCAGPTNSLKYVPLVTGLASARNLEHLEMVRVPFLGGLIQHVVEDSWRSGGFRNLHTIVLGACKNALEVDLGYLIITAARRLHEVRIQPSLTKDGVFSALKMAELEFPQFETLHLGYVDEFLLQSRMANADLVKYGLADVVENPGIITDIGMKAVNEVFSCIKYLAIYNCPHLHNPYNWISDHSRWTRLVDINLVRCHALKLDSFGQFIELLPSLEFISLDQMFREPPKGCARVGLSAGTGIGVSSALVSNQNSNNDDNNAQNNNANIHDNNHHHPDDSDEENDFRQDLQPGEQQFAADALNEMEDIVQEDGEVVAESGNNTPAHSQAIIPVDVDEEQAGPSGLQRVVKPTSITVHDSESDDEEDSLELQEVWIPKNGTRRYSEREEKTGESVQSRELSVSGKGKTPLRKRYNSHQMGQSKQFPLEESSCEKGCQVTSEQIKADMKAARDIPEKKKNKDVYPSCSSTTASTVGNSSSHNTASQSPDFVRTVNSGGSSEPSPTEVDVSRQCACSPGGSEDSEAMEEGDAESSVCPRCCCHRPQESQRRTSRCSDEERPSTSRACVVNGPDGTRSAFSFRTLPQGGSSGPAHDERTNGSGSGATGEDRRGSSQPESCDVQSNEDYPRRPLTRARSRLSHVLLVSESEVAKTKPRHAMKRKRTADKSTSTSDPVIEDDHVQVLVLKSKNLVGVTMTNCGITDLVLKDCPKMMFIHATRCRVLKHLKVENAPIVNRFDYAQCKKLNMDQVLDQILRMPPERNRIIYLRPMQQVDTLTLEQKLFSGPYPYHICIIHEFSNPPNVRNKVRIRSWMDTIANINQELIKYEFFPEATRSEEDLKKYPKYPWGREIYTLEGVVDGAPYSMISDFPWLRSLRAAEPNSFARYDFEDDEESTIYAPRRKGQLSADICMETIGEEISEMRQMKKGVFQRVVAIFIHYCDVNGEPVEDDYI",
  "assay": "affinity purification with mass spectrometry; SF-FBXO38 affinity-purified from HeLa cells, LC-MS/MS; parental HeLa cells as negative control",
  "note": "No constants are given. Whether binding was seen depends on the method and setting. In cells and extracts the contact can be indirect. Here binding means that the protein was enriched with, or labelled near, the bait; the list need not be complete. Sequences can lack the tags named with a protein.",
  "data": [
    {"molecule": "DEDD, endogenous in HeLa cells (from UniProt O75618 1-318)", "values": [
      {"measurement": "binding", "value": "binds"}
    ]},
    {"molecule": "SKP1, endogenous in HeLa cells (from UniProt P63208 1-163)", "values": [
      {"measurement": "binding", "value": "binds"}
    ]},
    {"molecule": "USP7 deubiquitinase, endogenous in HeLa cells (from UniProt Q93009 1-1102) (enzyme)", "values": [
      {"measurement": "binding", "value": "binds"}
    ]},
    {"molecule": "SUGT1, endogenous in HeLa cells (protein, UniProt Q9Y2Z0 1-365) MAAAAAGTATSQRFFQSFSDALIDEDPQAALEELTKALEQKPDDAQYYCQRAYCHILLGNYCVAVADAKKSLELNPNNSTAMLRKGICEYHEKNYAAALETFTEGQKLDIETGFHRVGQAGLQLLTSSDPPALDSQSAGITGADANFSVWIKRCQEAQNGSESEVWTHQSKIKYDWYQTESQVVITLMIKNVQKNDVNVEFSEKELSALVKLPSGEDYNLKLELLHPIIPEQSTFKVLSTKIEIKLKKPEAVRWEKLEGQGDVPTPKQFVADVKNLYPSSSPYTRNWDKLVGEIKEEEKNEKLEGDAALNRLFQQIYSDGSDEVKRAMNKSFMESGGTVLSTNWSDVGKRKVEINPPDDMEWKKY", "values": [
      {"measurement": "binding", "value": "binds"}
    ]}
  ]
}
